From doi:10.1101/2021.02.15.431217
Results are given in words; binding and its absence hold for the method and conditions named. In cells and extracts the contact can be indirect. Some entries that bind do so weakly or less than the wild type.

Protein sequences, listed by entry. Tags and fused reporters are not part of them.
UniProt P25963: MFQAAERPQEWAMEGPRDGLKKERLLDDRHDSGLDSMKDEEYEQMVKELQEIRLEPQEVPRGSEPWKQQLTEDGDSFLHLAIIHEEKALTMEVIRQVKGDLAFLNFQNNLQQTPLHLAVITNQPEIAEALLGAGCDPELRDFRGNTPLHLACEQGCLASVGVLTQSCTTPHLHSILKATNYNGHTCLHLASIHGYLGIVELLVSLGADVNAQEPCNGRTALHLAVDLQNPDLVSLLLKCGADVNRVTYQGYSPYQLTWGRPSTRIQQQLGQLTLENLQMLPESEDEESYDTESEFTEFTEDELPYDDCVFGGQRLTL

Biological target: biotinylated H4 (aa1-23) peptide, K residues mutated to A (H4K5,8,12,16A) (UniProt P62805)
Experiment: pull-down

binding: binds
Substance: non-SUMOylated p-IκBα (≈37 kDa), endogenous in HCT-116 cells (from UniProt P25963 1-317)
